Results deposited as PubChem BioAssay AID1508597 (Cure First, 2020)

Purpose: 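Survival screen with siRNA in ovarian cancer cells derived from patients, with or without rucaparib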 (primary screen)
Cell system: human ovarian carcinoma lines grown from tumours: OCI-P5x (papillary serous) and OCI-C5x (clear cell)
Reagent: siRNA pool against human genes, 1.25 pmol siRNA per well
Timing: 72 h or 96 h, depending on the cell culture
Treatment: rucaparib 20 µM (about IC30) or vehicle, present until read-out
Rucaparib or vehicle: Vehicle
Cell line: OCI-C5x (clear cell)
Detection: 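ATP luminescence measured at 72 or 96 h according to the culture, then normalised and expressed as percent viability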
Direction: viability, normalised: higher = more viable cells remaining
Hit rule: 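Active when normalised viability falls below 80 percent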
Calls: active = viability under 80%; inactive = viability 80% or more
Shown is an unselected part of the about 2,100 reagents, under one of the conditions tested. 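Calls flag viability under 80% in either arm, not effects specific to rucaparib; the reference for percent is not stated.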 Unmarked entries are inactive. A reagent listed more than once was tested more than once; the source does not tell the runs apart. The record does not give: the 100% reference.

What is on record for CLK1, technical replicate 1?
viability, normalised (%): 73.7 (active)

How did the screen score CLK1, technical replicate 2?
viability, normalised (%): 37.5 (active)

For CLK1, technical replicate 3, what does the deposit list?
viability, normalised (%): 46.3 (active)

How did the screen score TK2, technical replicate 1?
viability, normalised (%): 43 (active)

For TK2, technical replicate 2, what was measured?
viability, normalised (%): 44.2 (active)

What did the screen give for TK2, technical replicate 3?
viability, normalised (%): 41.2 (active)

What is on record for POLG2, technical replicate 1?
viability, normalised (%): 87.5

What is on record for POLG2, technical replicate 2?
viability, normalised (%): 94.5

With POLG2, technical replicate 3, what was measured?
viability, normalised (%): 77.9 (active)

What is on record for PALB2, technical replicate 1?
viability, normalised (%): 55.3 (active)

How did the screen score PALB2, technical replicate 1?
viability, normalised (%): 86.6

With PALB2, technical replicate 2, how do the results read?
viability, normalised (%): 102

For PALB2, technical replicate 2, what was measured?
viability, normalised (%): 27.5 (active)

With PALB2, technical replicate 3, what was measured?
viability, normalised (%): 40.8 (active)

How did the screen score PALB2, technical replicate 3?
viability, normalised (%): 71.2 (active)

Which result is listed for CASK, technical replicate 1?
viability, normalised (%): 72.9 (active)

Which result is listed for CASK, technical replicate 2?
viability, normalised (%): 58.6 (active)

What did the screen give for CASK, technical replicate 3?
viability, normalised (%): 68.9 (active)

Which result is listed for RPS6KC1, technical replicate 1?
viability, normalised (%): 56.5 (active)

For RPS6KC1, technical replicate 2, what does the deposit list?
viability, normalised (%): 71.4 (active)

With RPS6KC1, technical replicate 3, what does the deposit list?
viability, normalised (%): 59.7 (active)

Laid out differently: 6 of the entries above
{"target":"PALB2","technical replicate":"1","viability, normalised (%)":86.6}
{"target":"PALB2","technical replicate":"2","viability, normalised (%)":102}
{"target":"PALB2","technical replicate":"2","viability, normalised (%)":"27.5 (active)"}
{"target":"PALB2","technical replicate":"3","viability, normalised (%)":"40.8 (active)"}
{"target":"PALB2","technical replicate":"3","viability, normalised (%)":"71.2 (active)"}
{"target":"CASK","technical replicate":"1","viability, normalised (%)":"72.9 (active)"}

Continued.
For INSR, technical replicate 1, what was measured?
viability, normalised (%): 82.6

With INSR, technical replicate 2, what does the deposit list?
viability, normalised (%): 74.3 (active)

For INSR, technical replicate 3, how do the results read?
viability, normalised (%): 66.2 (active)

Which result is listed for PRP4K, technical replicate 1?
viability, normalised (%): 89.3

What is on record for PRP4K, technical replicate 2?
viability, normalised (%): 59.1 (active)

With PRP4K, technical replicate 3, what does the deposit list?
viability, normalised (%): 58.5 (active)

Which result is listed for TNK1, technical replicate 1?
viability, normalised (%): 67.4 (active)

Which result is listed for TNK1, technical replicate 2?
viability, normalised (%): 43.9 (active)

How did the screen score TNK1, technical replicate 3?
viability, normalised (%): 56.9 (active)

With CLDN15, technical replicate 1, what was measured?
viability, normalised (%): 56.7 (active)

What is on record for CLDN15, technical replicate 2?
viability, normalised (%): 48.5 (active)

What is on record for CLDN15, technical replicate 3?
viability, normalised (%): 56.8 (active)

With DHFR, technical replicate 1, how do the results read?
viability, normalised (%): 51.4 (active)

With DHFR, technical replicate 2, how do the results read?
viability, normalised (%): 63.5 (active)

For DHFR, technical replicate 3, how do the results read?
viability, normalised (%): 47.8 (active)

What did the screen give for POU5F1B, technical replicate 1?
viability, normalised (%): 55.5 (active)

With POU5F1B, technical replicate 2, what does the deposit list?
viability, normalised (%): 50.8 (active)

How did the screen score POU5F1B, technical replicate 3?
viability, normalised (%): 47.6 (active)

What did the screen give for EIF4A3, technical replicate 1?
viability, normalised (%): 19.1 (active)

With EIF4A3, technical replicate 2, what does the deposit list?
viability, normalised (%): 20.2 (active)

How did the screen score EIF4A3, technical replicate 3?
viability, normalised (%): 20.9 (active)
